In PMC7465447:
Results are given in words; binding and its absence hold for the method and conditions named. Some results given as binding are weak or reduced against the parent protein; the word gives no strength.

By UniProt entry, the sequences of proteins in these tests, tags left out. Where a name states a change or a piece, a line headed by the entry shows the natural chain unless it says otherwise.
UniProt A0A125YZN2: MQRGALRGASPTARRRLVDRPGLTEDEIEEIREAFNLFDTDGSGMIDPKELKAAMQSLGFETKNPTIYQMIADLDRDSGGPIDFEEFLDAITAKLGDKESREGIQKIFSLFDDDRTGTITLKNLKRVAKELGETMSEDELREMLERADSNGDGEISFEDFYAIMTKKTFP
UniProt A0A125YHX7: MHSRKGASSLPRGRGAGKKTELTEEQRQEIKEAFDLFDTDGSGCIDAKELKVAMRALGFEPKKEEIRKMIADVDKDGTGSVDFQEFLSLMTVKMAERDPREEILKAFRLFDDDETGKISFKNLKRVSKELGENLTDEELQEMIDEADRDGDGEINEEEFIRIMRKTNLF

Tests used:
[1] = biological target: TgCEN2-C (TgCEN2 lacking the first 22 amino acids, residues 23-170) (Toxoplasma gondii); experiment: SEC; Superdex 75 Increase 10/300 GL, 2 mg/mL protein, 50 mM Tris-HCl, 150 mM KCl pH 7.5, with 5 mM EGTA (apo-form); both purified
[2] = biological target: TgCEN2-C (TgCEN2 lacking the first 22 amino acids, residues 23-170) (Toxoplasma gondii); experiment: native gel or EMSA; native PAGE (12%) after 30 min at 25 °C with 2 mM CaCl2 or 2 mM EGTA; apo- and Ca2+-bound protein; both purified
[3] = biological target: TgCEN2-C (TgCEN2 lacking the first 22 amino acids, residues 23-170) (Toxoplasma gondii); experiment: turbidity (absorbance at 340 nm); 20 μM protein, 1 mM Ca2+, 20 mM Tris-HCl, 20 mM KCl pH 7.5 (0.5 mM DTT for TgCEN1), 37 °C, against time; both purified
[4] = biological target: TgCEN2-C (TgCEN2 lacking the first 22 amino acids, residues 23-170) (Toxoplasma gondii); experiment: turbidity (absorbance at 340 nm); 20 μM protein, no Ca2+ (1 mM EGTA), 20 mM Tris-HCl, 20 mM KCl pH 7.5 (0.5 mM DTT for TgCEN1), 37 °C, against time; both purified
[5] = biological target: TgCEN2-C (TgCEN2 lacking the first 22 amino acids, residues 23-170) (Toxoplasma gondii); experiment: dynamic light scattering; 10 μM protein, 37 °C, before and after 1 mM CaCl2, high ionic strength as in the ANS experiments (50 mM Tris-HCl, 150 mM KCl pH 7.5); mean count rate followed (Figure S6B); both purified
[6] = biological target: full-length TgCEN2 (Toxoplasma gondii centrin 2) (Toxoplasma gondii); experiment: turbidity (absorbance at 340 nm); 20 μM protein, 1 mM Ca2+, 20 mM Tris-HCl, 20 mM KCl pH 7.5 (0.5 mM DTT for TgCEN1), 37 °C, against time; both purified
[7] = biological target: full-length TgCEN2 (Toxoplasma gondii centrin 2) (Toxoplasma gondii); experiment: turbidity (absorbance at 340 nm); 20 μM protein, no Ca2+ (1 mM EGTA), 20 mM Tris-HCl, 20 mM KCl pH 7.5 (0.5 mM DTT for TgCEN1), 37 °C, against time; both purified
[8] = biological target: full-length TgCEN1 (Toxoplasma gondii centrin 1) (Toxoplasma gondii); experiment: turbidity (absorbance at 340 nm); 20 μM protein, 1 mM Ca2+, 20 mM Tris-HCl, 20 mM KCl pH 7.5 (0.5 mM DTT for TgCEN1), 37 °C, against time; both purified
[9] = biological target: TgCEN1-C (TgCEN1 lacking the first 21 residues, residues 22-169) (Toxoplasma gondii); experiment: SEC; Superdex 75 Increase 10/300 GL, 2 mg/mL protein, 50 mM Tris-HCl, 150 mM KCl pH 7.5, with 5 mM EGTA (apo-form); both purified
[10] = biological target: TgCEN1-C (TgCEN1 lacking the first 21 residues, residues 22-169) (Toxoplasma gondii); experiment: native gel or EMSA; native PAGE (12%) after 30 min at 25 °C with 2 mM CaCl2 or 2 mM EGTA; apo- and Ca2+-bound protein; both purified
[11] = biological target: TgCEN1-C (TgCEN1 lacking the first 21 residues, residues 22-169) (Toxoplasma gondii); experiment: turbidity (absorbance at 340 nm); 20 μM protein, 1 mM Ca2+, 20 mM Tris-HCl, 20 mM KCl pH 7.5 (0.5 mM DTT for TgCEN1), 37 °C, against time; both purified
[12] = biological target: TgCEN1-C (TgCEN1 lacking the first 21 residues, residues 22-169) (Toxoplasma gondii); experiment: turbidity (absorbance at 340 nm); 20 μM protein, no Ca2+ (1 mM EGTA), 20 mM Tris-HCl, 20 mM KCl pH 7.5 (0.5 mM DTT for TgCEN1), 37 °C, against time; both purified
[13] = biological target: TgCEN1-C (TgCEN1 lacking the first 21 residues, residues 22-169) (Toxoplasma gondii); experiment: dynamic light scattering; 10 μM protein, 37 °C, before and after 1 mM CaCl2, high ionic strength as in the ANS experiments (50 mM Tris-HCl, 150 mM KCl pH 7.5); mean count rate followed (Figure S6B); both purified

TgCEN2-C (TgCEN2 lacking the first 22 amino acids, residues 23-170) (from UniProt A0A125YZN2 23-170) (domain or fragment)
binding [1]: no binding (tested: 2 mg/mL)
binding [2]: no binding
binding [3]: no binding (tested: 20 μM)
binding [4]: no binding (tested: 20 μM)
binding [5]: no binding (tested: 10 μM)

full-length TgCEN2 (Toxoplasma gondii centrin 2) (from UniProt A0A125YZN2 1-170)
binding [6]: no binding (tested: 20 μM)
binding [7]: no binding (tested: 20 μM)

full-length TgCEN1 (Toxoplasma gondii centrin 1) (from UniProt A0A125YHX7 1-169)
binding [8]: binds

TgCEN1-C (TgCEN1 lacking the first 21 residues, residues 22-169) (from UniProt A0A125YHX7 22-169) (domain or fragment)
binding [9]: no binding (tested: 2 mg/mL)
binding [10]: no binding
binding [11]: no binding (tested: 20 μM)
binding [12]: no binding (tested: 20 μM)
binding [13]: no binding (tested: 10 μM)
